# At least one read-out could not be matched to a standard name with certainty.
# System: grape cultured cells (VR calluses)
# Assay: Anthocyanin content in grape calluses treated with various amino acids (Reference Example 1(1))
# Type: cell-based, Vitis vinifera L.
# Conditions: 5 mM amino acid in MS agar medium, 5 days; relative to positive control 100 μM ABA taken as 100%
# Procedure: Cells derived from a European grape cell line (Vitis vinifera L.; RIKEN BioResource Center; VR, management number RPC00003) were subcultured on MS agar medium. The subcultured VR calluses (i.e. cell clusters) were each transferred to MS agar medium containing 5 mM of each amino acid solution, and cultured. As a positive control, 100 μM abscisic acid (ABA) was added, which is a known color-promotor. Five days after the transfer, each callus was freeze-dried and ground, and anthocyanin was extracted with a 1% HCl solution in MeOH.
row,Compound,Relative content of anthocyanin
1,"NCCCC[C@H](N)C(=O)O [Lys, lysine]",15%
2,"N[C@@H](Cc1c[nH]c2ccccc12)C(=O)O [Trp, tryptophan]",4%
3,"N=C(N)NCCC[C@H](N)C(=O)O [Arg, arginine]",9%
